Binding data for three substances are collected here from paper PMC11063629.

By UniProt entry, the sequences of proteins in these tests, tags left out.
UniProt O00506: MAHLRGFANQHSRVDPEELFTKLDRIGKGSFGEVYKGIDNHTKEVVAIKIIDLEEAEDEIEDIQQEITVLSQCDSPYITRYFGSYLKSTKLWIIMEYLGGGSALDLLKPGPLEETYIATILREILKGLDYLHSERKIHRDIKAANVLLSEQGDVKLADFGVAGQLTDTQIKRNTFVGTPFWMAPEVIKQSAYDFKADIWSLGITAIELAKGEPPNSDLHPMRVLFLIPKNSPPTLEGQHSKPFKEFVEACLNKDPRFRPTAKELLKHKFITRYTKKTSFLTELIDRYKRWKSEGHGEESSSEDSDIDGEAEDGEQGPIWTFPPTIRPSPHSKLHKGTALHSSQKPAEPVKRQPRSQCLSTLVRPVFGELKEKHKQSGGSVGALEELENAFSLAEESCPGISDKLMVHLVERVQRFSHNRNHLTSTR
UniProt Q9BUL8: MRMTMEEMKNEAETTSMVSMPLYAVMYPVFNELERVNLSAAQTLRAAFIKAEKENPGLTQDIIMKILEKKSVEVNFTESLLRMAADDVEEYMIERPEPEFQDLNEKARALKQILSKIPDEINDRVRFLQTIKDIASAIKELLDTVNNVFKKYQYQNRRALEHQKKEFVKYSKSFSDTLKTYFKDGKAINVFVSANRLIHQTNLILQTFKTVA
UniProt Q9P289: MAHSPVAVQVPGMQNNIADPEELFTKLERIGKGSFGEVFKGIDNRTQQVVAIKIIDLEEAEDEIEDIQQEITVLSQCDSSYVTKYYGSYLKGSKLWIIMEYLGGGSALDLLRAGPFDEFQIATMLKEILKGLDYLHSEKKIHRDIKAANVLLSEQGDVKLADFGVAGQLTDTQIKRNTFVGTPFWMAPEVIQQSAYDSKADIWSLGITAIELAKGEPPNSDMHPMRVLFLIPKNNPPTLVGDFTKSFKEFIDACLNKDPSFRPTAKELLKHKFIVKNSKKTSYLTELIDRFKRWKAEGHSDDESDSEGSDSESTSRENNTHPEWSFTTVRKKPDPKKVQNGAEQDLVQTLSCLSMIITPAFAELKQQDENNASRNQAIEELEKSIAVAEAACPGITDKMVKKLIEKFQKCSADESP

No constants are given. Whether binding was seen depends on the method and setting. Binding seen in cells or lysates may run through a third protein. Some results given as binding are weak or reduced against the parent protein; the word gives no strength. Tags and fused reporters may be left off the sequences shown.

The target in the test is T1, C4orf19-V5 (human) (UniProt Q8IY42).
T1 sequence: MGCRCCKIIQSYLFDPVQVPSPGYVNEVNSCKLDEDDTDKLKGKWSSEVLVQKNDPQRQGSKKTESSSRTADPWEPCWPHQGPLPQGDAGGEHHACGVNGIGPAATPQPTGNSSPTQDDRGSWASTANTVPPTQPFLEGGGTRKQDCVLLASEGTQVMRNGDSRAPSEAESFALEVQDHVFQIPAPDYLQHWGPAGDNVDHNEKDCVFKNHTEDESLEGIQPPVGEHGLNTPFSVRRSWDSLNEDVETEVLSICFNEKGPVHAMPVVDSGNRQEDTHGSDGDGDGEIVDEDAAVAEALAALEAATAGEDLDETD
Put plainly: co-IP; anti-V5 immunoprecipitation from lysates of MCF10A cells expressing C4orf19-V5 and 3×FLAG-tagged candidates; lysis buffer 50 mM HEPES, 150 mM NaCl, 1.5 mM MgCl2, 1 mM EGTA, 1% Triton X-100, 10% glycerol, pH 7.4; overnight at 4°C with protein-A or protein-G-sepharose; western blot. A general note: In western blotting, separated proteins are transferred to a membrane and probed.
In the case of “3×FLAG-STK25 (from UniProt O00506 1-426) (enzyme)”, the binding entry is “binds”.
Under “3×FLAG-PDCD10 (from UniProt Q9BUL8 1-212)” stands “binds”.
Regarding “3×FLAG-STK26 (from UniProt Q9P289 1-416) (enzyme)”, the binding result is “binds”.
